PubChem BioAssay AID445 (National Center for Advancing Translational Sciences (NCATS), 2006)
The other results are listed elsewhere or left out. These are further read-outs of the screen, such as a control signal, another cell line or another target. No call is given for them. Most of these compounds were active or inconclusive in the main read-out, so they are no random draw. Potencies come from curve fits of mixed quality, noted in brackets.

Test: IkB Signaling
Conditions: ABC-DLBCL IkBa-CBG/CBR dual luciferase ratio (green luciferase fused to IkBa over red control in OCI-Ly3 lymphoma cells), 4 h
Text: NIH Molecular Libraries Screening Centers Network [MLSCN]
NIH Chemical Genomics Center [NCGC]
Nuclear factor kappa-B (NF-kappa-B) plays an important role in normal B cell development and survival. Diffuse large B cell lymphoma (DLBCL) is the most commonly observed type of non-Hodgkin's lymphoma. Gene expression analysis has identified an activated B cell-like subtype of DLBCL (ABC-DLBCL) which expresses known NF-kappa-B target genes. […] However, targets upstream of IKK have been largely unexplored and so nodes upstream of IKK in the NF-kappa-B pathway remain untested due to the lack of chemical probes.
A cell-sensor assay for I-kappa-B-alpha stabilization was developed with NIH investigator Dr. R. Eric Davis in Dr. Louis M. Staudt's laboratory. The assay uses green (CBG68) and red (CBR) emitting beetle luciferases [Chroma-Glo(TM) developed by Promega Corp.] where the green luciferase is fused to I-kappa-B-alpha and the red luciferase is present in its native state. Both luciferase genes are stably present in the OCI-Ly3 human ABC DLBCL cell line, but their expression is under the control of tetracycline-inducible promoters. Following the addition of doxycycline to induce expression of the luciferases, the green luminescence in control cultures rises only slowly because the CBG fusion partner I-kappa-B-alpha is targeted by IKK activity for rapid degradation. In contrast, green luminescence rises rapidly in the presence of proteasome inhibitors or IKK inhibitors. The rise in red luminescence of CBR is not affected by proteasome or IKK inhibitors, and serves as normalization for cell number and nonspecific effects. Compounds were screened as a concentration-titration series that ranged from 57 uM to 0.7 nM.
NCGC Assay Protocol Summary:
Cells were seeded in 1536-well plates at 5000 cells/3ul in IMDM medium containing 0.5% FBS, w/o phenol red, L-glutamine, 25 mM HEPES, 3 mg/ml sodium bicarbonate. After centrifugation for 1 min. at 1000 rpm, 23 nl of compounds or DMSO were delivered to each well using a pin tool. Then 1ul 80ng/ml doxycycline was dispensed into white solid 1536-well plates and the plates were incubated at 37C/5% C02 in a cell incubator for 4 hrs. Then 4 ul Chroma-Glo luminescent substrate mix (Promega) was added to each well. The plate was incubated at R.T. for 10-15 min. The plates were measured on a ViewLux plate reader for green luminescence (540/20 nm filter) and red luminescence (618/8 nm filter). The green and red luminescent signals were corrected for red and green luminescence filter overlap using previously determined filter calibration constants (determined using the procedure outlined in the Promega Technical Manual). The %Activity was determined from the ratio of corrected green/red luminescent values. Green luminescent and ratio %Activity was determined by normalizing to the difference in signal between basal cells (0% Activity) and cells incubated with 10 uM of the proteasome inhibitor MG-132 (100% Activity). Red luminescent %Activity was normalized to the difference between red luminesence in basal cells (0%Activity) and zero luminescence (-100% Activity).
Concentration-response curves were fitted to the signals arising from the green luminescence (I-kappa-B-alpha-luciferase fusion; IkB-luc) and the red luminescence (unfused luciferase; luc) as well as the calculated ratio. The concentration-effect curves were then classified based on curve quality (r2), response magnitude and degree of measured activity. Compounds were then categorized based on their concentration-response curves for all three datasets (Ikb-luc, luc and ratio).
Keywords: IKK, I-kappa-B, IkB, IkBa, cytotoxicity, luminescence, MLSMR, MLSCN, NIH Roadmap, qHTS, NCGC

[1] = measured here: control luc red channel unless noted

COc1cccc(N2CCN(C(=O)CCS(=O)(=O)c3ccc4c(c3)CC(=O)N4C)CC2)c1
AC50 [1]: 0.1 µM [rising, full curve]

O=C(Cn1c(=O)oc2cc(S(=O)(=O)N3CCCC3)ccc21)NCc1ccc(Cl)cc1
AC50 [1]: 25.1 µM [falling, single point]

Cc1ncc(CO)c2c1Oc1nc(-c3ccccc3)nc(SCC(=O)N3CCCCC3)c1C2
AC50 [1]: 15.8 µM [falling, partial curve]

CCN(CC)C(=O)Cn1c(=O)n(Cc2ccc(C(=O)NCc3ccc(C)cc3)cc2)c(=O)c2ccccc21
AC50 [1]: 10 µM [falling, partial curve]

CS(=O)(=O)N1CCc2cc(C(=O)Nc3ccc(Cl)c(C(F)(F)F)c3)ccc21
AC50 [1]: 20 µM [falling, partial curve]

COc1ccc(NC(=O)Cn2c(=O)n(-c3cccc(C)c3)c(=O)c3c2c2cc(C)ccc2n3C)cc1Cl
AC50 [1]: 12.6 µM [falling, partial curve]

O=C(C1CCC(CNS(=O)(=O)c2ccc(Br)s2)CC1)N1CCN(c2ccccc2Cl)CC1 (stereo unspecified)
AC50 [1]: 12.6 µM [falling, partial curve, poor fit]

CCOc1cc2sc(N3CCC(C(=O)Nc4ccccc4C(=O)OC)CC3)nc2cc1Br
AC50 [1]: 0.501 µM [falling, full curve]

COc1cc2c(cc1OC)C(COc1ccc3c(C)cc(=O)oc3c1)N(C(=O)C(C)C)CC2 (stereo unspecified)
AC50 [1]: 20 µM [falling, single point]

O=C(Nc1c(C(=O)Nc2ccc(F)cc2)oc2ccccc12)c1cc2ccccc2o1
AC50 [1]: 12.6 µM [falling, partial curve]

CC(=O)Nc1ccc(C(=O)CCl)cc1
AC50 [1]: 12.6 µM [falling, partial curve]

c1ccc(-c2noc(-c3ccc4c(c3)OCO4)n2)nc1
AC50 [1]: 1.26 µM [falling, full curve]

Cc1cccc(-n2ccnc2SCC(=O)Nc2ccc(F)cc2F)c1C
AC50 [1]: 20 µM [falling, single point]

Cc1cc(Oc2c(C(F)(F)F)oc3c(CN4CCC(C)CC4)c(O)ccc3c2=O)cc(C)c1Cl
AC50 [1]: 0.794 µM [falling, full curve, poor fit]

Cc1ccc(C)c(CNC(=O)c2ccc3c(c2)nc2n3CCCCC2)c1
AC50 [1]: 15.8 µM [falling, partial curve]

Cc1ccc(C)c(CN2CCC(CNC(=O)Nc3ccc(Br)cc3F)CC2)c1
AC50 [1]: 25.1 µM [falling, partial curve]

Cc1cc(C(=O)CSc2nnc(-c3ccco3)o2)c(C)n1Cc1ccco1
AC50 [1]: 12.6 µM [falling, partial curve]

O=C(O)CCC(=O)OC1CC2CCC1C2 (stereo unspecified)
AC50 (measured here: IkB-luc green channel): 1.26 µM [rising, partial curve]
AC50 (measured here: control luc red channel): 0.1 µM [rising, full curve, poor fit]

O=C(CC(SCCO)c1ccc2c(c1)OCO2)c1ccco1 (stereo unspecified)
AC50 [1]: 39.8 µM [falling, single point]

CCOc1ccc(NC(=O)Cn2cc(C(=O)c3ccc(CC)cc3)c(=O)c3cc(OC)c(OC)cc32)cc1
AC50 [1]: 31.6 µM [falling, single point]

COc1ccc2cc3cc(C(=O)N4CCN(c5cccc(Cl)c5)CC4)sc3nc2c1
AC50 [1]: 12.6 µM [falling, partial curve, poor fit]

CC(C)CCNC(=O)CSc1nc2ccccc2nc1Cc1ccccc1
AC50 [1]: 39.8 µM [falling, single point]

CCc1cccc(-n2c(C)nc3c(cnn3-c3ccc(C)c(C)c3)c2=O)c1
AC50 [1]: 15.8 µM [falling, partial curve]

Cc1nnc(Sc2cc(C(=O)NCc3ccco3)c3ccccc3n2)s1
AC50 [1]: 12.6 µM [falling, partial curve]

COc1cccc(NC(=O)CSc2nc3cc(OC)c(OC)cc3c3nc(-c4ccccc4)nn23)c1
AC50 [1]: 0.0631 µM [falling, full curve, poor fit]

NC1=NC2(CCC(c3ccccc3)CC2)n2c(nc3ccccc32)N1 (stereo unspecified)
AC50 [1]: 15.8 µM [falling, partial curve]

C[C@H](NC(=O)OC(C)(C)C)c1nnc(SCc2c(F)cccc2Cl)o1
AC50 [1]: 0.0398 µM [rising, full curve, poor fit]

CCc1ccc(NC(=O)Cn2nc3c4ccccc4n(Cc4ccccc4)cc-3c2=O)cc1
AC50 [1]: 39.8 µM [falling, single point]

O=C(c1ccc(CSc2nc3ccncc3n2Cc2ccc(F)cc2)cc1)N1CCCCCC1
AC50 [1]: 15.8 µM [falling, partial curve]

COCCCNC(=O)c1cc2c(=O)oc3ccc(C)cc3c2s1
AC50 [1]: 2 µM [rising, full curve, poor fit]

O=C1CC(c2cccc(O)c2)c2c(nc(SCc3ccccc3F)[nH]c2=O)N1 (stereo unspecified)
AC50 [1]: 12.6 µM [falling, partial curve]

CCOc1ccc(C(=O)N(Cc2sccc2C)C2CCS(=O)(=O)C2)cc1 (stereo unspecified)
AC50 [1]: 0.00501 µM [rising, full curve]

Cc1ccccc1CSc1nc2n(n1)C(c1cccs1)C1=C(CCCC1=O)N2 (stereo unspecified)
AC50 [1]: 12.6 µM [falling, partial curve]

O=C(CN1CCC(C(=O)c2ccc(Cl)cc2)CC1)Nc1ccc2c(c1)OCCO2
AC50 [1]: 15.8 µM [falling, partial curve]

COc1ccc(C(=O)N=c2nc3ccccn3s2)cc1
AC50 [1]: 1.58 µM [falling, full curve]

O=C(CSc1ncc(-c2ccccc2)n1-c1ccccc1)NCc1ccco1
AC50 [1]: 12.6 µM [falling, partial curve]

Cn1c(C(=O)NCc2ccccc2F)cc2oc3ccccc3c21
AC50 [1]: 12.6 µM [falling, partial curve]

O=C(c1ccco1)n1nc(-c2ccccc2)nc1NCc1ccc(F)cc1
AC50 [1]: 2.51 µM [rising, partial curve]

CCN1CCN(c2oc(-c3ccc(COc4ccc(C)cc4)o3)nc2C#N)CC1
AC50 [1]: 25.1 µM [falling, single point]

COc1ccc2oc(-c3cccc(NC(=O)c4ccc(C#N)cc4F)c3)nc2c1
AC50 [1]: 2 µM [rising, partial curve]
